This passage reports binding results from article PMC2994893.

By UniProt entry, the sequences of proteins in these tests, tags left out.
UniProt P06239: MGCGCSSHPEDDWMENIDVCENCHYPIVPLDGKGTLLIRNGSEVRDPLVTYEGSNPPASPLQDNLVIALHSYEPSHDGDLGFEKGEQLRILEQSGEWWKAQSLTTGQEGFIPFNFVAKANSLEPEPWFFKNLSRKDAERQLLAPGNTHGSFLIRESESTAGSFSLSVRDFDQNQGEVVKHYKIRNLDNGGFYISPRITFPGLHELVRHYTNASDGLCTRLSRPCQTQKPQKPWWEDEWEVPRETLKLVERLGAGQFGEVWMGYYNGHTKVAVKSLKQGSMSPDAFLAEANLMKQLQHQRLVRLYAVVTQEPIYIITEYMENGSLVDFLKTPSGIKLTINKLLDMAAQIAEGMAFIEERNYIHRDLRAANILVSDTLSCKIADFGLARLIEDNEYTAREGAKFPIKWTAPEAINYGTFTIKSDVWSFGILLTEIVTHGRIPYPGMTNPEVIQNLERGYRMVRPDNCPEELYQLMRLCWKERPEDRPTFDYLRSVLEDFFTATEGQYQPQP

The assay deals with Lck (human (endogenous in T cell blasts from healthy donors and in Hut-78 cells)) (UniProt P06239). Briefly: co-IP; Lck immunoprecipitated (3A5 antibody on beads, 2 h, 4°C) from lysates of Hut-78 cells (parental, control, Hut-LAT-WT, Hut-LAT-4YF) stimulated by CD3 crosslinking; blotted with anti-LAT and anti-pLAT-Y191; weak constitutive association reported without stimulation; lysis in 1% NP-40 and 1% n-dodecyl-β-D-maltoside, 150 mM NaCl, pH 7.5.

No constants are given. Whether binding was seen depends on the method and setting. Binding seen in cells or lysates may run through a third protein. Some results given as binding are weak or reduced against the parent protein; the word gives no strength. Tags and fused reporters may be left off the sequences shown.

B1: Myc-tagged LAT (protein, UniProt O43561-2 1-233)
chain: MEEAILVPCVLGLLLLPILAMLMALCVHCHRLPGSYDSTSSDSLYPRGIQFKRPHTVAPWPPAYPPVTSYPPLSQPDLLPIPRSPQPLGGSHRTPSSRRDSDGANSVASYENEEPACEDADEDEDDYHNPGYLVVLPDSTPATSTAAPSAPALSTPGIRDSAFSMESIDDYVNVPESGESAEASLDGSREYVNVSQELHPGAAKTEPAALSSQEAEEVEEEGAPDYENLQELN
In the case of B1, the binding result was “binds”.
